Data published in US20160051652A1.

What was measured:
[1] = target: human HLA-A*2402 molecule (human); test: MHC stabilization assay, T2-2402 cells, 10 µM peptide, flow cytometry
[2] = target: human HLA-A*2402 molecule (human); test: MHC stabilization assay, T2-2402 cells, 10 µM peptide, flow cytometry of surface HLA-A24

Row | Binder | binding [1] | binding [2]
1 | RFYAFGRVF [eEF2409-417 peptide] | binds | binds
2 | AFGRVFSGL [eEF2412-420 peptide] | binds | binds
3 | RFDVHDVTL [eEF2701-709 peptide] | binds | binds
4 | AYLPVNESF [eEF2786-794 peptide] | binds | binds

Results are given in words; binding and its absence hold for the method and conditions named. Binding calls can cover weak binding; strength is not graded here.
